Source: the supplement of paper PMC3334620
Over roughly 33,000 sequences, “E-score (-0.5 to 0.5)” has its median near -0.016; the highest 2% begin near 0.3. The list shows a part of the results.

target: T1, Yer184c (UniProt P39961); test: PBM E-score (8-mer binding enrichment) (E-score (-0.5 to 0.5)); higher = stronger / more preferred TF binding; conditions: protein concentration: 100 nM; construct: GST-full length
T1 sequence: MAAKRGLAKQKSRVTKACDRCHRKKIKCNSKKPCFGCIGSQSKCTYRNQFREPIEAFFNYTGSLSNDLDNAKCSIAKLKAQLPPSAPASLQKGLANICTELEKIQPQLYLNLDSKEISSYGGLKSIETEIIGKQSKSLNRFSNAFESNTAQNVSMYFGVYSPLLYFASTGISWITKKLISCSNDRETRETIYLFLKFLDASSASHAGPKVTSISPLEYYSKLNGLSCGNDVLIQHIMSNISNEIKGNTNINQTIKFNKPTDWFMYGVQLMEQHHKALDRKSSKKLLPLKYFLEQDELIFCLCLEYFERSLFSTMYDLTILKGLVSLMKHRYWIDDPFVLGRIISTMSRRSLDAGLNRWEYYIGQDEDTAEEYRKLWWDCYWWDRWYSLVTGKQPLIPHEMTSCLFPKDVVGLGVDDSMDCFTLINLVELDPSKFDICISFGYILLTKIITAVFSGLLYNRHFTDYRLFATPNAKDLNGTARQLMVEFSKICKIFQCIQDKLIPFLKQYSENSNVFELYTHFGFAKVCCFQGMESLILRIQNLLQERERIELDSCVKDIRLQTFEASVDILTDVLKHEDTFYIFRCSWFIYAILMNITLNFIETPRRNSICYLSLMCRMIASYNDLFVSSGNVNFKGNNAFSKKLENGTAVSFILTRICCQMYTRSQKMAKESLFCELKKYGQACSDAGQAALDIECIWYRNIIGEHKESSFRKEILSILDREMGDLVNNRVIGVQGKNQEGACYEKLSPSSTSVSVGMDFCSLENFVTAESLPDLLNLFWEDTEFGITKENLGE
How it was run: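 Each ungapped eight-base word and its reverse complement, pooled, received an E-score from the Universal PBM Analysis Suite. Underlying scans, normalised with masliner, recorded fluorescent anti-GST bound to GST-tagged yeast transcription factors. These were applied at about 100-200 nM to universal all-10-mer Agilent arrays double-stranded by primer extension.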

| Sequence | PBM E-score |
| --- | --- |
| ATCAAACG | 0.0842 |
| ACTTCGGC | 0.269 |
| ATTGAAAA | 0.192 |
| ATCCCGAT | 0.091 |
| GCTAATTA | 0.0935 |
| ATTACTGC | 0.0852 |
| GTAGAGAA | 0.00922 |
| AGCTCCCA | -0.135 |
| ACCGTGCA | -0.0733 |
| CCAACTAA | -0.0249 |
| CCAGAATA | 0.16 |
| AAAAACTC | 0.124 |
| AACATCTA | -0.0976 |
| CCACTTCA | -0.0618 |
| CACGGTCC | -0.123 |
| ACCAACTC | -0.0146 |
| ACGCCAGT | -0.142 |
| AGTCTAAA | -0.0613 |
| CTTATACC | 0.0173 |
| CCAGAAAC | 0.103 |
| GGGGCCCC | 0.0115 |
| CTTCCGAC | 0.173 |

| Sequence | PBM E-score |
| --- | --- |
| GTTTCGTA | 0.274 |
| CTTGTGGC | -0.199 |
| ATTATAAT | 0.255 |
| CACTTAAC | -0.143 |
| ACCTCCGT | 0.107 |
| GTACGTTA | 0.0704 |
| ACAATCAG | 0.0638 |
| GGGTCTTA | -0.186 |
| CACGGCAC | 0.124 |
| CGGGGCGA | 0.0911 |
| AGTACGAT | -0.014 |
| CAGTAGGC | -0.075 |
| AACCCAAG | -0.107 |
| CCGCGCGA | 0.183 |
| GTTATATA | 0.156 |
| TGTACGAA | 0.0407 |
| CTCGAGAC | 0.0461 |
| ATCAACTC | 0.0389 |
| AAGTTGCA | -0.0771 |
| AAGCGGCA | 0.201 |
| GAAGCAAA | -0.0663 |
| CACGTCGC | -0.154 |

| Sequence | PBM E-score |
| --- | --- |
| GCAGGAGC | -0.282 |
| ATCCACAA | -0.0255 |
| GAGATATA | 0.166 |
| ATTCCTTC | 0.0508 |
| CTATCGGC | 0.0932 |
| CGTTGTGC | -0.0134 |
| AAGGCGAC | -0.169 |
| ACGGCAGT | -0.00033 |
| CAGCTGAC | -0.035 |
| CACACTCG | 0.129 |
| CCGCCCGC | 0.0679 |
| ATTATTGC | 0.211 |
| CCTTGTAA | 0.0106 |
| AAGCCTCG | -0.124 |
| GATCAGAC | -0.0162 |
| TAGATTAA | 0.183 |
| CCCCTGTA | -0.191 |
| AACAATCC | 0.194 |
| CAATCAAA | 0.00295 |
| ACACTAAT | 0.0395 |
| CGGCTGTC | 0.135 |
| CGAGCGTC | -0.145 |

6 consecutive entries out of the list so far, quoted:

| Sequence | PBM E-score |
| --- | --- |
| CTATCGGC | 0.0932 |
| CGTTGTGC | -0.0134 |
| AAGGCGAC | -0.169 |
| ACGGCAGT | -0.00033 |
| CAGCTGAC | -0.035 |
| CACACTCG | 0.129 |

Further results follow.

| Sequence | PBM E-score |
| --- | --- |
| CCTTCGAA | 0.0746 |
| CCCGGCTC | 0.281 |
| AGACTCTA | -0.124 |
| ACGAATAC | 0.125 |
| AATACGGC | 0.291 |
| AGTTGTGA | 0.103 |
| GGAAACAA | 0.15 |
| CCAAACAA | 0.122 |
| ACACCATG | -0.237 |
| AAAATCTT | 0.11 |
| AGAGGGAG | -0.248 |
| ACCGGCAC | 0.363 |
| ACAGTGAG | -0.251 |
| CTTAGACC | -0.0357 |
| CCTTCCAC | -0.317 |
| AATTACCT | 0.0235 |
| CTTAGCTC | 0.00985 |
| GGGCATTA | -0.199 |
| GCTCACTA | -0.136 |
| GTCGTTTA | 0.0906 |
